Source: the supplement of paper PMC8612539
In brackets after ≈: the same amount, converted by molar mass. This continues a long series; more values of the same kind are listed elsewhere.

Test system: Escherichia coli
Assay: minimum inhibitory concentration (MIC)
Protocol: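 Broth microdilution MIC (Sensititre BOPO7F bovine plate, CLSI methods) of 19 antimicrobials against field isolates of P. multocida, M. haemolytica, H. somni (deep nasopharyngeal swabs) and E. coli, Enterococcus spp. (rectal swabs) from weaned dairy heifers. Incubation 16-24 h at 35 C. MIC is the lowest concentration preventing visible growth. Values with <= or > lie at the tested range limits. Trimethoprim-sulfamethoxazole is given as the trimethoprim component of a 1:19 mixture.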

CCCNC[C@]1(O)[C@H](C)O[C@@H](O[C@H]2[C@H](C)[C@@H](O[C@@H]3O[C@H](C)C[C@H](N(C)C)[C@H]3O)[C@](C)(O)C[C@@H](C)CN[C@H](C)[C@@H](O)[C@](C)(O)[C@@H](CC)OC(=O)[C@@H]2C)C[C@@]1(C)OC [Tulathromycin]
Conditions	minimum inhibitory concentration [µg/mL]
isolate (source animal id): 221	16 (≈ 19.8 µM)
isolate (source animal id): 222	≤ 8
isolate (source animal id): 223	≤ 8
isolate (source animal id): 224	16 (≈ 19.8 µM)
isolate (source animal id): 225	≤ 8
isolate (source animal id): 226	≤ 8
isolate (source animal id): 227	≤ 8
isolate (source animal id): 228	≤ 8
isolate (source animal id): 229	16 (≈ 19.8 µM)
isolate (source animal id): 230	≤ 8
isolate (source animal id): 231	≤ 8
isolate (source animal id): 232	16 (≈ 19.8 µM)
isolate (source animal id): 233	≤ 8
isolate (source animal id): 234	16 (≈ 19.8 µM)
isolate (source animal id): 235	≤ 8
isolate (source animal id): 236	16 (≈ 19.8 µM)
isolate (source animal id): 237	≤ 8
isolate (source animal id): 238	≤ 8
isolate (source animal id): 239	≤ 8
isolate (source animal id): 240	≤ 8
isolate (source animal id): 241	≤ 8
isolate (source animal id): 242	≤ 8
isolate (source animal id): 243	≤ 8
isolate (source animal id): 244	16 (≈ 19.8 µM)
isolate (source animal id): 245	≤ 8
isolate (source animal id): 246	≤ 8
isolate (source animal id): 247	≤ 8
isolate (source animal id): 248	≤ 8
isolate (source animal id): 249	≤ 8
isolate (source animal id): 250	≤ 8
isolate (source animal id): 251	≤ 8
isolate (source animal id): 252	16 (≈ 19.8 µM)
isolate (source animal id): 253	≤ 8
isolate (source animal id): 254	≤ 8
isolate (source animal id): 255	≤ 8
isolate (source animal id): 256	≤ 8
isolate (source animal id): 257	≤ 8
isolate (source animal id): 258	16 (≈ 19.8 µM)
isolate (source animal id): 259	≤ 8
isolate (source animal id): 260	≤ 8
isolate (source animal id): 261	16 (≈ 19.8 µM)
isolate (source animal id): 262	≤ 8
isolate (source animal id): 263	16 (≈ 19.8 µM)
isolate (source animal id): 264	16 (≈ 19.8 µM)
isolate (source animal id): 265	≤ 8
isolate (source animal id): 266	≤ 8
isolate (source animal id): 267	≤ 8
isolate (source animal id): 268	≤ 8
isolate (source animal id): 269	16 (≈ 19.8 µM)
isolate (source animal id): 270	16 (≈ 19.8 µM)
isolate (source animal id): 271	≤ 8
isolate (source animal id): 272	≤ 8
isolate (source animal id): 273	≤ 8
isolate (source animal id): 274	16 (≈ 19.8 µM)
isolate (source animal id): 275	≤ 8
isolate (source animal id): 276	≤ 8
isolate (source animal id): 277	16 (≈ 19.8 µM)
isolate (source animal id): 278	≤ 8
isolate (source animal id): 279	≤ 8
isolate (source animal id): 280	≤ 8
isolate (source animal id): 281	≤ 8
isolate (source animal id): 282	≤ 8
isolate (source animal id): 283	16 (≈ 19.8 µM)
isolate (source animal id): 284	≤ 8
isolate (source animal id): 285	≤ 8
isolate (source animal id): 286	16 (≈ 19.8 µM)
isolate (source animal id): 287	≤ 8
isolate (source animal id): 288	16 (≈ 19.8 µM)
isolate (source animal id): 289	≤ 8
isolate (source animal id): 290	≤ 8
isolate (source animal id): 291	≤ 8
isolate (source animal id): 292	≤ 8
isolate (source animal id): 293	≤ 8
isolate (source animal id): 294	≤ 8
isolate (source animal id): 295	≤ 8
isolate (source animal id): 296	≤ 8
isolate (source animal id): 297	≤ 8
isolate (source animal id): 298	≤ 8
isolate (source animal id): 299	≤ 8
isolate (source animal id): 300	≤ 8
isolate (source animal id): 301	≤ 8
isolate (source animal id): 302	≤ 8
isolate (source animal id): 303	≤ 8
isolate (source animal id): 304	≤ 8
isolate (source animal id): 305	≤ 8
isolate (source animal id): 306	≤ 8
isolate (source animal id): 307	≤ 8
isolate (source animal id): 308	≤ 8
isolate (source animal id): 309	≤ 8
isolate (source animal id): 310	≤ 8
isolate (source animal id): 311	≤ 8
isolate (source animal id): 312	≤ 8
isolate (source animal id): 313	≤ 8
isolate (source animal id): 314	≤ 8
isolate (source animal id): 315	16 (≈ 19.8 µM)
isolate (source animal id): 316	16 (≈ 19.8 µM)
isolate (source animal id): 317	≤ 8
isolate (source animal id): 318	≤ 8
isolate (source animal id): 319	≤ 8
isolate (source animal id): 320	≤ 8
isolate (source animal id): 321	16 (≈ 19.8 µM)
isolate (source animal id): 322	≤ 8
isolate (source animal id): 323	16 (≈ 19.8 µM)
isolate (source animal id): 324	≤ 8
isolate (source animal id): 325	16 (≈ 19.8 µM)
isolate (source animal id): 326	≤ 8
isolate (source animal id): 327	≤ 8
isolate (source animal id): 328	≤ 8
isolate (source animal id): 329	≤ 8
isolate (source animal id): 330	≤ 8
isolate (source animal id): 331	≤ 8
isolate (source animal id): 332	16 (≈ 19.8 µM)
isolate (source animal id): 333	≤ 8
isolate (source animal id): 334	≤ 8
isolate (source animal id): 335	≤ 8
isolate (source animal id): 336	16 (≈ 19.8 µM)
isolate (source animal id): 337	≤ 8
isolate (source animal id): 338	≤ 8
isolate (source animal id): 339	≤ 8
isolate (source animal id): 340	32 (≈ 39.7 µM)
isolate (source animal id): 341	≤ 8
